Reference: PubChem BioAssay AID652259 (Drosophila RNAi Screening Center, 2013)

- Assay: 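Identify new Wingless signalling regulators in fly cells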 (primary screen)
- Cell system: Drosophila clone 8 imaginal disc epithelial cells
- Reagent: long dsRNA against Drosophila genes
- Treatment: pathway stimulated by co-transfected Wingless expression plasmid
- Detection: 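Dual luciferase reads per well after Wingless plasmid stimulation: reporter firefly light and Renilla control light; activity is firefly divided by Renilla, a ratio not deposited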
- Reading the numbers: firefly reporter light: higher = more Wg reporter light, before normalisation; Renilla control light: higher = more transfected or surviving cells
- Active means: 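Strong candidates differ from their plate mean by at least two out of four per-plate statistical tests; weak candidates meet just one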
- Calls: active = candidate regulator (raises or lowers reporter); inactive = not a candidate
In all, the deposit lists about 22,000 reagents; shown is a random part of those that have a named target and a result. Of all reagents, 233 (1.1%) are marked active. 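Light values are raw, unnormalised plate reads; the ratio scores behind the reporter calls were not deposited.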 A plus sign joins genes that one reagent is predicted to hit. The record does not give: the amount of reagent, the time to read-out, the dose of the treatment.

CG11555 [DRSC00315] scored firefly reporter light, replicate 1 = 3298; firefly reporter light, replicate 2 = 8459; Renilla control light, replicate 1 = 957; Renilla control light, replicate 2 = 2912; inactive.
After knock-down of alpha4GT1 [DRSC00488], the record shows firefly reporter light, replicate 1 = 9782; Renilla control light, replicate 1 = 4279; inactive.
With knock-down of CR1075 [DRSC12144], the screen gave firefly reporter light, replicate 1 = 18745; Renilla control light, replicate 1 = 4884; inactive.
With knock-down of krimp [DRSC06578], the screen gave firefly reporter light, replicate 1 = 13962; Renilla control light, replicate 1 = 5255; inactive.
For Eph [DRSC17164], the entry reads firefly reporter light, replicate 1 = 20754; Renilla control light, replicate 1 = 14082; inactive.
Silencing of Ras64B [DRSC08689] gave: firefly reporter light, replicate 1 = 9184; Renilla control light, replicate 1 = 2993; inactive.
With knock-down of rswl [DRSC06923], the screen gave firefly reporter light, replicate 1 = 16584; Renilla control light, replicate 1 = 3851; inactive.
CG8237 [DRSC07119] gave firefly reporter light, replicate 1 = 10154; Renilla control light, replicate 1 = 3162; inactive.
For CG14540 [DRSC14884], the values are firefly reporter light, replicate 1 = 14954; Renilla control light, replicate 1 = 13633; inactive.
Depletion of CG11211 [DRSC04851] came out at: firefly reporter light, replicate 1 = 3030; firefly reporter light, replicate 2 = 10724; Renilla control light, replicate 1 = 992; Renilla control light, replicate 2 = 4235; inactive.
Silencing of Rgk2 [DRSC06503] came out at: firefly reporter light, replicate 1 = 6293; Renilla control light, replicate 1 = 2096; inactive.
Depletion of Rgk2 [DRSC21651] gave: firefly reporter light, replicate 1 = 6.28e5; firefly reporter light, replicate 2 = 7.45e5; Renilla control light, replicate 1 = 4.60e5; Renilla control light, replicate 2 = 3.78e5; inactive.
Silencing of CG14411 [DRSC19597] came out at: firefly reporter light, replicate 1 = 22107; Renilla control light, replicate 1 = 7121; inactive.
Against Es2 [DRSC18663], the values are firefly reporter light, replicate 1 = 2480; firefly reporter light, replicate 2 = 9059; Renilla control light, replicate 1 = 849; Renilla control light, replicate 2 = 1703; inactive.
CG9897 + asRNA:CR42742 [DRSC04595] showed firefly reporter light, replicate 1 = 2433; firefly reporter light, replicate 2 = 5185; Renilla control light, replicate 1 = 867; Renilla control light, replicate 2 = 1941; inactive.
With knock-down of CG7465 [DRSC08592] the results were firefly reporter light, replicate 1 = 2242; firefly reporter light, replicate 2 = 9869; Renilla control light, replicate 1 = 986; Renilla control light, replicate 2 = 3696; inactive.
Depletion of CG7465 [DRSC22320] gave: firefly reporter light, replicate 1 = 6.72e5; firefly reporter light, replicate 2 = 6.63e5; Renilla control light, replicate 1 = 3.11e5; Renilla control light, replicate 2 = 2.93e5; inactive.
After knock-down of CG32196 [DRSC09548] the results were firefly reporter light, replicate 1 = 4136; Renilla control light, replicate 1 = 1636; inactive.
Against CG5892 [DRSC15910], the values are firefly reporter light, replicate 1 = 39539; Renilla control light, replicate 1 = 8464; inactive.
Silencing of CG13747 [DRSC06418] gave: firefly reporter light, replicate 1 = 2305; firefly reporter light, replicate 2 = 8608; Renilla control light, replicate 1 = 897; Renilla control light, replicate 2 = 3099; inactive.
CG14246 [DRSC14741] showed firefly reporter light, replicate 1 = 12712; Renilla control light, replicate 1 = 6551; inactive.
CG2120 [DRSC18207] scored firefly reporter light, replicate 1 = 18488; Renilla control light, replicate 1 = 7354; inactive.
For Set [DRSC16861], the entry reads firefly reporter light, replicate 1 = 9057; Renilla control light, replicate 1 = 2488; inactive.
Against CG3502 + CG9863 [DRSC04578], the values are firefly reporter light, replicate 1 = 2008; firefly reporter light, replicate 2 = 5830; Renilla control light, replicate 1 = 337; Renilla control light, replicate 2 = 1138; inactive.
After knock-down of CG8500 [DRSC16434] the results were firefly reporter light, replicate 1 = 14940; Renilla control light, replicate 1 = 3426; inactive.
With knock-down of CG14655 [DRSC12241] the results were firefly reporter light, replicate 1 = 3725; Renilla control light, replicate 1 = 1525; inactive.
Knock-down of CG43138 [DRSC17527] resulted in: firefly reporter light, replicate 1 = 3217; Renilla control light, replicate 1 = 1537; inactive.
Silencing of CG43689 [DRSC18046] came out at: firefly reporter light, replicate 1 = 33165; Renilla control light, replicate 1 = 10435; inactive.
CG43689 [DRSC18383] showed firefly reporter light, replicate 1 = 15588; Renilla control light, replicate 1 = 2610; inactive.
CG43689 [DRSC22467] gave firefly reporter light, replicate 1 = 6.22e5; firefly reporter light, replicate 2 = 5.90e5; Renilla control light, replicate 1 = 2.07e5; Renilla control light, replicate 2 = 23912; inactive.
CG31960 [DRSC00281] showed firefly reporter light, replicate 1 = 2119; firefly reporter light, replicate 2 = 8784; Renilla control light, replicate 1 = 761; Renilla control light, replicate 2 = 2760; inactive.
Silencing of Brd7-9 [DRSC03017] resulted in: firefly reporter light, replicate 1 = 8516; Renilla control light, replicate 1 = 4103; inactive.

Copied from the list.
Value for CG43689 [DRSC18046] in “Renilla control light, replicate 1”: 10435
For “Renilla control light, replicate 1”, krimp [DRSC06578] reads 5255
